In experiment [1] the target is v-Akt (viral homologue of c-Akt/PKB, AKT8 retrovirus oncogene product) (AKT8 retrovirus) (UniProt P31748). The experiment in a line: immunoprecipitation from membrane fractions of AKT8 cells.
For experiment [2], the target named is GST fusion of the PKB C-terminal regulatory domain (GST-PKBCter, pGST-PKBCter) (human) [GST: P08515]. The experiment in a line: anti-Flag co-immunoprecipitation from total COS-1 cell extract in high detergent (NP40, 1%) lysis buffer, anti-GST blot.
Experiment [3] deals with GST-CTMPs fusion protein (pGST.CTMPs) (human) (UniProt Q5T1C6). The experiment in a line: eukaryotic GST pull-down from co-transfected COS-1 cells, low, medium and high stringency; also after pervanadate stimulation.
Experiment [4] addresses GST fusion of the PKB C-terminal regulatory domain (GST-PKBCter, pGST-PKBCter) (human) [GST: P08515]. As to the kind of experiment: co-immunoprecipitation from the cytosolic fraction of COS cells.
The target is the same in experiment [5]. The experiment in a line: anti-Flag co-immunoprecipitation from the cytosolic (S100) fraction of COS-1 cells, anti-GST blot.

The chains behind the UniProt entries cited, without tags or fusion partners. Where a name states a change or a piece, a line headed by the entry shows the natural chain unless it says otherwise.
UniProt P31748: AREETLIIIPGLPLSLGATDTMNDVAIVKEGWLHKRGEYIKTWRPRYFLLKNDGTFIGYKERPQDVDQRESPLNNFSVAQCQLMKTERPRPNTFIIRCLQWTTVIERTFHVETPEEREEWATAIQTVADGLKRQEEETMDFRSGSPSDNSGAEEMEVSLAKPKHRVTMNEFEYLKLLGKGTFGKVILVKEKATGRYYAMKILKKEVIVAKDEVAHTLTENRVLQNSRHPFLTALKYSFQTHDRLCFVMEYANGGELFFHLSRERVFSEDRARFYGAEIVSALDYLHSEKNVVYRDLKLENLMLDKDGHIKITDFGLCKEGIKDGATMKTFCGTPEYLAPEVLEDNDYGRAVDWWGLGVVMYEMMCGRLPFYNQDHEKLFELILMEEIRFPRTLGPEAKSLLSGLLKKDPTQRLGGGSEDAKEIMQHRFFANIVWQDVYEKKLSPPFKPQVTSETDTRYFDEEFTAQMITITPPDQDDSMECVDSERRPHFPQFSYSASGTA
UniProt Q5T1C6: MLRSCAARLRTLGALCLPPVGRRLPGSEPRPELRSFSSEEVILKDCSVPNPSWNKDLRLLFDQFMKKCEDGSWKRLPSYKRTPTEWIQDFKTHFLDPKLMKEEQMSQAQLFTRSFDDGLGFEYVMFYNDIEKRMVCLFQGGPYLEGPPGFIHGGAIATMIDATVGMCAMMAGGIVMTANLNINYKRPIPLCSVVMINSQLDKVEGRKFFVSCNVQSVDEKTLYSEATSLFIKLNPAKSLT

No constants are given. Whether binding was seen depends on the method and setting. For some assays here: In cells and extracts the contact can be indirect. Some results given as binding are weak or reduced against the parent protein; the word gives no strength.

As for “FLAG-CTMP (Flag tagged CTMP, form CTMPL or CTMPs not stated) (from UniProt Q5T1C6 1-240)”, the binding result in experiment [1] is on record as “binds”.
Consider “Flag epitope tagged CTMPs (F.CTMPs; CTMP starting at the natural ATG of the cDNA) (from UniProt Q5T1C6 1-240)”, for which the binding entry in experiment [2], in experiment [3], in experiment [4] and in experiment [5] was “binds” each time.

(Values after patent publication US20030124602A1.)
